Results taken from patent US20150174203A1.
No constants are given. Whether binding was seen depends on the method and setting. For part of these data: Binding seen in cells or lysates may run through a third protein. Some results given as binding are weak or reduced against the parent protein; the word gives no strength. Where a sequence is shown, tags or fusion partners need not be part of it. Blank lines part the entries; values can stand above or below the binder they belong to.

The chains behind the UniProt entries cited, without tags or fusion partners. Where a name states a change or a piece, a line headed by the entry shows the natural chain unless it says otherwise.
UniProt O75022: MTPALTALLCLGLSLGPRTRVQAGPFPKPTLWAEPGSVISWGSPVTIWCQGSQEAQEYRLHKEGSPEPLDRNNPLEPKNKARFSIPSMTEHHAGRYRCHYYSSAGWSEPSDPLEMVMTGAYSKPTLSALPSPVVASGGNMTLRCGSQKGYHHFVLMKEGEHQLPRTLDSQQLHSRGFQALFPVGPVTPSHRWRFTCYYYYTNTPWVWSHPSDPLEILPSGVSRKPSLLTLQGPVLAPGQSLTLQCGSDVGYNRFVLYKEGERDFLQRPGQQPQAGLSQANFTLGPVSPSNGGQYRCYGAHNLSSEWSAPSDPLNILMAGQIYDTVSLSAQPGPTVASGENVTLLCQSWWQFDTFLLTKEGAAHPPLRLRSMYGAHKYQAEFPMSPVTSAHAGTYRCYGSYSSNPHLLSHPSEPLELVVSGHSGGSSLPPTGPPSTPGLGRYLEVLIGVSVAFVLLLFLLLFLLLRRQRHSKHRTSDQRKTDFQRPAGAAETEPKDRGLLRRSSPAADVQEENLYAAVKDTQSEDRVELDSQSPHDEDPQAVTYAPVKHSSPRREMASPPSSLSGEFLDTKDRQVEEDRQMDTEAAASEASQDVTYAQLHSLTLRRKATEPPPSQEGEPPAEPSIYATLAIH
UniProt O75023: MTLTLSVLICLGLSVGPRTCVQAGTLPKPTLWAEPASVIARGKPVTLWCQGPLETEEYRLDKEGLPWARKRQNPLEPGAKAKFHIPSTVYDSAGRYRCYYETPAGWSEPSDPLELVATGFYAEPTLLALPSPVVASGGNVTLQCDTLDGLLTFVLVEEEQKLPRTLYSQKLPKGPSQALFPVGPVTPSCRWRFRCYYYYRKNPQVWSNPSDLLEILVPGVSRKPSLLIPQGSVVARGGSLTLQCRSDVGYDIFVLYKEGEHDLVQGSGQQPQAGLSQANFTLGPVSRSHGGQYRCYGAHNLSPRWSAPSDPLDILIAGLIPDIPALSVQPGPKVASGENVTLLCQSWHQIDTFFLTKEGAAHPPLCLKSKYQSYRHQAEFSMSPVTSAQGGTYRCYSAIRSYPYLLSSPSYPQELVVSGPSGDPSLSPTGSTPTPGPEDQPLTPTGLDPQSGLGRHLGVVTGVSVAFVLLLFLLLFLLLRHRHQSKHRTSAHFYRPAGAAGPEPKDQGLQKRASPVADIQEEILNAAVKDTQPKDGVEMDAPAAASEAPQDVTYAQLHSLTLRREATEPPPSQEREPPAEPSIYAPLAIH

Legend:
[1] = biological target: LILRB3 (human) (UniProt O75022); test: flow cytometry on transfected 293T cells
[2] = biological target: LILRB5 (human) (UniProt O75023); test: flow cytometry on transfected 293T cells
[3] = biological target: human LILRB2 (human) (UniProt Q8N423); test: flow cytometry on human cord blood cells
[4] = biological target: human LILRB2 (human) (UniProt Q8N423); test: flow cytometry on LILRB2-expressing cells
[5] = biological target: T1, paired immunoglobulin-like receptor B (PirB) (mouse) (UniProt P97484); test: flow cytometry on PirB-transfected 293T cells
T1 sequence (looked up): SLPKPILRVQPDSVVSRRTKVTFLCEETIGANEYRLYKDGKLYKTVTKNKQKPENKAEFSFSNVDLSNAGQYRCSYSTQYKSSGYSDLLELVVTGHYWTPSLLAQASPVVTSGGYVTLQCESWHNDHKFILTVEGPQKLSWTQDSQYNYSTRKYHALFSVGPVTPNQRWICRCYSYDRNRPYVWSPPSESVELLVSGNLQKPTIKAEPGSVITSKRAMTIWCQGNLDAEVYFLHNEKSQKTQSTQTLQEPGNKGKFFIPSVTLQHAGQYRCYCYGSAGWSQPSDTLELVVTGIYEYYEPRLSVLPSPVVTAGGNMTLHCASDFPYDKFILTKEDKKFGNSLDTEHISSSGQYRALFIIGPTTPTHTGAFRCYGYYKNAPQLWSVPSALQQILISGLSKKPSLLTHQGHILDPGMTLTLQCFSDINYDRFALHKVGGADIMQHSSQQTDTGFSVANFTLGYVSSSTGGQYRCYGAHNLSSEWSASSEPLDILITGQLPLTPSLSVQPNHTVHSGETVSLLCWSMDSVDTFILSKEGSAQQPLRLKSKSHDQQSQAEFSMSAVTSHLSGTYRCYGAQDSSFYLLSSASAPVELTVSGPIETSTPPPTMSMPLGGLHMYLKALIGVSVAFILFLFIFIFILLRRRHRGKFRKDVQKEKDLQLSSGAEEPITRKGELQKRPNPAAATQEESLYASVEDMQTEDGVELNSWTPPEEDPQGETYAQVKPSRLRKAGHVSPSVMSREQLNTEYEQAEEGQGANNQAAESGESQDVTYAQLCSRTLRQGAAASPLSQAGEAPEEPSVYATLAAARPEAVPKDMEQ

[6] = biological target: human LILRB2 (human) (UniProt Q8N423); test: flow cytometry on LILRB2-overexpressing 293T cells
[7] = biological target: human LILRB2 (human) (UniProt Q8N423); test: summary of binding to LILRB2; method not given in the table
[8] = biological target: T2, PirB extracellular domain fused to human Fc (mouse; human) (UniProt P97484); test: co-IP from conditioned medium of co-transfected 293T cells
T2 sequence (looked up): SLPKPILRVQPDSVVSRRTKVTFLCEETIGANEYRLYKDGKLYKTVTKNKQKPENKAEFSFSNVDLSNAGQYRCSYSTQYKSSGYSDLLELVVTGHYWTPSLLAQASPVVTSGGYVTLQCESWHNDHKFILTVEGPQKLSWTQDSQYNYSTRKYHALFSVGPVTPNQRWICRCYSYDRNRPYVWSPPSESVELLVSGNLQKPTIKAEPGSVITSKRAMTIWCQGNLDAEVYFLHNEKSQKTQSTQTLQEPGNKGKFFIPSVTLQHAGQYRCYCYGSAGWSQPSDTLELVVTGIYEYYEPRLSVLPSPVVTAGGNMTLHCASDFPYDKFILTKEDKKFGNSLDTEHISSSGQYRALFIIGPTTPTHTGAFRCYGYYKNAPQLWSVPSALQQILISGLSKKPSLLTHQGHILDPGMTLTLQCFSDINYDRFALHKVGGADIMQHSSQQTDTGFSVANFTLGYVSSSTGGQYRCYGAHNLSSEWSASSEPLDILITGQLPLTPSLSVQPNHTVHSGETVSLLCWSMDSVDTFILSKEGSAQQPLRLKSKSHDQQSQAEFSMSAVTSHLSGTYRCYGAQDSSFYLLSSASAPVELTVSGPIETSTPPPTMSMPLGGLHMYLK

[9] = biological target: T1, paired immunoglobulin-like receptor B (PirB) (mouse); test: flow cytometry on WT and PIR-B KO mouse MDSCs, anti-Flag-FITC
[10] = biological target: T3, LILRB2 extracellular domain fused to human IgG-Fc (human) (UniProt Q8N423); test: co-transfection in 293T cells, IP with protein A, Western blot
T3 sequence: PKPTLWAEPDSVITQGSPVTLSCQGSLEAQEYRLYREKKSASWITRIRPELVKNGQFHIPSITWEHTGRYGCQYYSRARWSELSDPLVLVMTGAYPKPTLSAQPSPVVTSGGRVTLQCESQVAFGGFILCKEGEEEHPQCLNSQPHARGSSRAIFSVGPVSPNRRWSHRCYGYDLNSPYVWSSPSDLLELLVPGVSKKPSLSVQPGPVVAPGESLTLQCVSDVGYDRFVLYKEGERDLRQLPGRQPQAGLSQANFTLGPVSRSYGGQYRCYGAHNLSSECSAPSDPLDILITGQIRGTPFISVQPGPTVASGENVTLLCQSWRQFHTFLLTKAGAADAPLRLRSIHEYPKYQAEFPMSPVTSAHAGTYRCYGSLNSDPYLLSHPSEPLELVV

[11] = biological target: T3, LILRB2 extracellular domain fused to human IgG-Fc (human); test: in vitro co-IP of purified proteins, protein A beads, Western blot
[12] = biological target: human LILRB2 (human) (UniProt Q8N423); test: flow cytometry, LILRB2-transfected 293T cells and human cord blood LILRB2+ cells
[13] = biological target: human LILRB2 (human) (UniProt Q8N423); test: relative binding to LILRB2+ human cord blood cells from flow cytometry, compared with control, n=3
[14] = biological target: T1, paired immunoglobulin-like receptor B (PirB) (mouse); test: flow cytometry, MDSCs of WT or PIR-B KO mice, pre-incubated with vehicle or GA (50 ug/mL), stained with angptl-2-Flag plus anti-Flag-FITC; GA and vehicle traces cannot be told apart on the scan
[15] = biological target: T3, LILRB2 extracellular domain fused to human IgG-Fc (human); test: in vivo co-IP
[16] = biological target: T3, LILRB2 extracellular domain fused to human IgG-Fc (human); test: in vivo co-IP (Table 2)
[17] = biological target: T4, mouse LAIR1 (mouse) (UniProt Q8BG84); test: flow cytometry on LAIR1-transfected 293T cells, anti-FLAG-APC and anti-LAIR1-PE
T4 sequence (looked up): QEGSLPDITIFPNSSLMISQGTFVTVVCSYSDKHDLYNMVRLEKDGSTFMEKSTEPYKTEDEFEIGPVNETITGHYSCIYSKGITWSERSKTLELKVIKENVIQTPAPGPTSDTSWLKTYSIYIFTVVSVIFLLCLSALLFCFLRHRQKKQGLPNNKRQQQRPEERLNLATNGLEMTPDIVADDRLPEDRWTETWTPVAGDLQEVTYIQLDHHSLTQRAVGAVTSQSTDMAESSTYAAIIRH

[18] = biological target: human LILRB2 (human) (UniProt Q8N423); test: flow cytometry on human cord blood LILRB2+ cells

B3: human Angptl-1 with FLAG tag at the C-terminus (ligand, not shown: small tags and cut ends)
chain: GQFKIKKINQRRYPRATDGKEEAKKCAYTFLVPEQRITGPICVNTKGQDASTIKDMITRMDLENLKDVLSRQKREIDVLQLVVDVDGNIVNEVKLLRKESRNMNSRVTQLYMQLLHEIIRKRDNSLELSQLENKILNVTTEMLKMATRYRELEVKYASLTDLVNNQSVMITLLEEQCLRIFSRQDTHVSPPLVQVVPQHIPNSQQYTPGLLGGNEIQRDPGYPRDLMPPPDLATSPTKSPFKIPPVTFINEGPFKDCQQAKEAGHSVSGIYMIKPENSNGPMQLWCENSLDPGGWTVIQKRTDGSVNFFRNWENYKKGFGNIDGEYWLGLENIYMLSNQDNYKLLIELEDWSDKKVYAEYSSFRLEPESEFYRLRLGTYQGNAGDSMMWHNGKQFTTLDRDKDMYAGNCAHFHKGGWWYNACAHSNLNGVWYRGGHYRSKHQDGIFWAEYRGGSYSLRAVQMMIKPID
binding [3]: binds | binding [12]: binds | binding [17]: binds | binding [13]: binds

B4: GST-Angptl-1 (ligand, not shown: a dimerising Fc or GST; small tags and cut ends)
chain: B3 chain
binding [18]: binds

Continued, values first:

binding [1]: binds | binding [2]: binds | binding [3]: binds | binding [4]: binds | binding [5]: binds | binding [6]: binds | binding [7]: binds | binding [8]: binds | binding [9]: binds | binding [10]: binds | binding [11]: binds | binding [12]: binds | binding [13]: binds | binding [14]: binds
B1: human Angptl-2 with FLAG tag at the C-terminus, mammalian-expressed (ligand, not shown: small tags and cut ends)
chain: QEDGFEGTEEGSPREFIYLNRYKRAGESQDKCTYTFIVPQQRVTGAICVNSKEPEVLLENRVHKQELELLNNELLKQKRQIETLQQLVEVDGGIVSEVKLLRKESRNMNSRVTQLYMQLLHEIIRKRDNALELSQLENRILNQTADMLQLASKYKDLEHKYQHLATLAHNQSEIIAQLEEHCQRVPSARPVPQPPPAAPPRVYQPPTYNRIINQISTNEIQSDQNLKVLPPPLPTMPTLTSLPSSTDKPSGPWRDCLQALEDGHDTSSIYLVKPENTNRLMQVWCDQRHDPGGWTVIQRRLDGSVNFFRNWETYKQGFGNIDGEYWLGLENIYWLTNQGNYKLLVTMEDWSGRKVFAEYASFRLEPESEYYKLRLGRYHGNAGDSFTWHNGKQFTTLDRDHDVYTGNCAHYQKGGWWYNACAHSNLNGVWYRGGHYRSRYQDGVYWAEFRGGSYSLKKVVMMIRPNPNTFH

binding [15]: binds | binding [16]: binds
B2: untagged Angptl-2, mammalian-expressed (ligand)
chain: B1 chain
